Reference: doi:10.1101/2023.01.24.524588
No constants are given. Whether binding was seen depends on the method and setting. In cells and extracts the contact can be indirect. Binding can be weak; no strength is given.

Target: ClSca (Cellulosilyticum lentocellum DSM 5427)
Experiment: pull-down

B1: Clole_0709 (enzyme, UniProt F2JNU4 1-1051)
chain: MNKRYKKIMVSLMATSMVLNLGVSMPIIAGPVEPPFNYAEAFQKSMYFYDANKCGPGVGEGELTWRGDCHTEDKFVPLVPKDDVTGMGTNLSASFIKQNKETLDPDGDGTVDLSGGFHDAGDHVKFGLPQSYSGSTLGWGYYEFKESYVAIGEKEHIESILRGFNDYFMRCTFKNSEGEVVAFAYQVGDGTTDHNYWGPPELQKTARPAFFASAQTPASDQCAGAAASLAINYLNFKDSDPAYAEKSLETAEALYEFAKENRGLGFSGGFYNSSYDEDEMSWAAVWLSIATGDKSYLTDITAVDANGAYTGYMSRIISTTSSTWQNIWVHSWDTVWGGVFAKLAPLTNNPEHWYFFRWNIEYWSGVPHENPNDTTYMASTPAGYKVVSTWGSARYETTAQLCALVYNKYKANSDFTKWCKSQMDYLLGDNPMNRCYEVGYSDISAIYPHHRAAHGSLTNSMLEPAVERHTLWGALVGGPDGDDYHKDDITDYVYNEVAIDYNAGFVGALAGLYELYGKGQAPLENFPPQEKDERPFYATAKIEQENSERSQITVKIHNDTSCPPSFESGLKARYFFDISEMVEAGQSLKELSVQVMYDQASIVDGVKTNINGPFMWDEEKNIAYIELDWSQNSFHGNREIHFGLVPTQDSQYKVHWDFTNDWSHEGLTKVEALTEYVPIYLNGEKVFGKEPTSYNVSINTPVEGSTISYIEGEKPITLEAIVGAAEESVTSIAYYADGIQIGEVQNAPYTFDYVADNISNVEQRKIAFSAKAHLANGTTITSKPVTITVVYRMPEALVVKLIEPAEGSIVDATKGSVSIPVTAVSENEAVTKIAIYANNEKLGEGSGLTYTTLYNTPSKGGASGNLTVTFKAVATLANGEEKEGKPVTMQIKLPVVISDLEGFSFKMQGSDSITSNTIGRKIIMKNTEGEAVDLAALSVRYYFTKEGNVGQTYFCDHASMTFNKAPWYAALTSDITYKVVNLDTPVNGADTYLELTFEKVGYDLEVGDTLEIEGRLINTNWSNFDQSNDHSYSNGAVVFYNDAVISGTIPQ
- binding: binds
